Measurements reported in patent publication US7723562B2, “Mice lacking alpha 1G showing enhanced novelty-seeking and alcohol preference and therapeutic methods for mood disorders by modulating alpha 1G T-type calcium channels” (Korea Institute of Science and Technology, priority 2004, dated 2010).
“Also recorded” adds a separate entry of the source. For at least one compound, name, drawing or mass did not settle the structure.

Key:
α1G−/− transgenic mice [1] = test: Mobility in an open field after drug treatment (pharmacological analysis); format: in vivo, mouse; conditions: open field one hour after treatment, 0.5 mg/kg into abdominal cavity
Excerpt: For reactivity test in an open field, a test animal was transferred to a test room one hour before the test began and each animal was put in an independent breeding cage for adaptation.
In order to investigate whether or not mobility increase of α1G−/− transgenic mice is related to diseases such as attention-deficit hyperactive disorder, schizophrenia, stereotype, etc., the present inventors have performed analysis of pharmacological effect of lithium and amphetamine which have been used as a therapeutic agent for the above diseases.
First, the effect of lithium and amphetamine on reactivity to a new subject was investigated. Particularly, one hour before exposing a test animal on an experimental device, lithium or amphetamine (0.5 mg/kg, injection 10 ml/kg) was injected into abdominal cavity of the animal. The test procedure was in accordance with that of reactivity test in an open field, but a breeding cage (24×18×13 cm) took the place of a white acryl open field in this example and a subject used was a styrofoam covered with 0.5 g aluminum foil and the size of which was 1.5×1.5×1.5 cm. Behavior of the animal was all recorded by a video camera for further analysis. Same standard and behavior index were used.

α1G−/− transgenic mice [2] = test: Reactivity to a new subject after drug pre-treatment (pharmacological analysis); format: in vivo, mouse; conditions: α1G−/− mice pretreated one hour before, 0.5 mg/kg into abdominal cavity; FIG. 9

`[Li]` [lithium] was tested, and the effect on mobility (α1G−/− transgenic mice [1]; FIG. 9) was “not significant”, the effect on mobility (α1G−/− transgenic mice [1]; FIG. 9, listed as Lithium) was “not to affect mobility” and the “play behavior with a new subject” value (α1G−/− transgenic mice [2]) was “suppressed; also recorded: inhibited”. For the same compound, the “searching motility / searching actions for a new material” value (α1G−/− transgenic mice [2]) was “not changed; also recorded: not much different”.
